Results on two sequences are retold here after paper PMC12276012, “Molecular mechanisms of biomolecular condensate formation in Drosophila melanogaster siRNA biogenesis”.

The exact form of at least one protein or probe is not confirmed. For part of these data: Weaker means in comparison with the reference protein, sequence or condition of that experiment. Protein sequences can lack the tags named with them. For part of these data: At least one verdict rests on a figure or table, not on a statement of the authors.

Data set [1] has as its system T1, Loqs-PD WT (full length) (Drosophila melanogaster).
T1 sequence (looked up): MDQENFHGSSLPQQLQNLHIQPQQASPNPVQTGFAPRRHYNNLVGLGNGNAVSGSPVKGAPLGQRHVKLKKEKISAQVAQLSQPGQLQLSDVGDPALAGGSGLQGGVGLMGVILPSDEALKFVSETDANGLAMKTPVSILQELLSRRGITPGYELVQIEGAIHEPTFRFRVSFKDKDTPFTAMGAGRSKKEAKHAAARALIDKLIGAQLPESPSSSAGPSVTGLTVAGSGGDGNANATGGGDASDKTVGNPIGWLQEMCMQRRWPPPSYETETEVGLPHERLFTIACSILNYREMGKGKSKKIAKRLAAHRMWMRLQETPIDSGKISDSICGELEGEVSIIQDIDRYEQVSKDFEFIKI
Put plainly: EMSA. The conditions noted are these: 400 nM RNA, 100-3200 nM protein; 3' pCp-Cy5 ligated (adds one C); EMSA: 20 mM sodium phosphate pH 6.5, 150 mM NaCl, 15% glycerol, 15 min, 1% agarose 1x TBE; recombinant protein; residues 1-359; protein details: His6-GB1 or His6 tag, cleaved by TEV; label: 3' Cy5.

Data set [2] deals with T2, Loqs-PD N-term (Drosophila melanogaster).
T2 sequence (looked up, limits assumed): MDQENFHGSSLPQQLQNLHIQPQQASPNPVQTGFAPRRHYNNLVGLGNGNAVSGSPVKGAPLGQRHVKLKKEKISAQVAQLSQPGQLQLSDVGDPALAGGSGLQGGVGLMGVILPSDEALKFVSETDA
Put plainly: NMR titration. The following applies: 100 uM protein, 25 uM RNA, PS-I buffer, weak binding at low salt; NMR: 20 mM sodium phosphate pH 6.5, PS-I or PS-II buffer (50-500 mM NaCl), 292 K for Loqs-PD deltaC; recombinant protein; protein details: tag cleaved.

The subject of data set [3] is T3, Loqs-PD deltaC (Drosophila melanogaster).
T3 sequence (looked up, limits assumed): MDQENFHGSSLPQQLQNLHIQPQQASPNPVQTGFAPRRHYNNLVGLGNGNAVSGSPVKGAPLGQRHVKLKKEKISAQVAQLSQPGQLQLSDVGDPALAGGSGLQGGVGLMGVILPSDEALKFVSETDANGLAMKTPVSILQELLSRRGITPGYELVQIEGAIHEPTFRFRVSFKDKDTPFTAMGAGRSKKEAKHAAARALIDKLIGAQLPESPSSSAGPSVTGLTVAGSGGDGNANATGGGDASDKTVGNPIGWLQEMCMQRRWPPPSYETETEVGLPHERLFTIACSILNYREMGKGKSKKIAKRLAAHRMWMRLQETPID
Put plainly: NMR titration. The conditions noted are these: 100 uM protein, up to 1:0.25 RNA, 50 and 150 mM NaCl; NMR: 20 mM sodium phosphate pH 6.5, PS-I or PS-II buffer (50-500 mM NaCl), 292 K for Loqs-PD deltaC; recombinant protein; protein details: tag cleaved.

With “GGAGCUUUCAAAAUGAUCUCCGUGAGGAGAUCAUUUUGAAAGCUCC [21 bp hairpin dsRNA, Cy5]”, in data set [1], the binding result is listed as “binds”.
As to “GGAGCUUUCAAAAUGAUCUCCGUGAGGAGAUCAUUUUGAAAGCUCC [21 bp hairpin dsRNA]”, the binding result in data set [2] is on record as “binds more weakly”; in data set [3] it was “binds”.
